PubChem BioAssay AID504793 | Drosophila RNAi Screening Center, 2011
Aim: 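Knock-downs allowing continued mitosis even though DNA is damaged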 (primary screen). Cell system: Drosophila S2R+ cells. Reagent: long dsRNA against Drosophila genes, about 0.25 µg dsRNA per well. Timing: 4 days of dsRNA, then 4 hours of drug before read-out. Conditions: doxorubicin 0.5 µM for 4 hours to cause double-strand breaks, in cells also given a low, harmless dose of dsRNA against nbs to sensitise the assay. Measured: 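Per-well count of mitotic cells stained for phospho-histone H3 after doxorubicin exposure, used as mitotic index; counts are raw and not normalised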. Reading the numbers: mitotic cells: higher = more cells in mitosis, weaker G2 arrest. Hit rule: 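Genes are called active only when high mitotic counts were reproduced with independent dsRNAs and mitosis was checked for delay without damage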. Calls: active = confirmed in follow-up tests; inactive = not confirmed.
The deposit covers about 23,000 reagents; shown is an unselected part of those with a known target gene and a result. Over the whole deposit, 62 (0.27%) are marked active. 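Calls come from follow-up tests whose scores are not deposited, so confirmed genes may have low counts here; counts are not normalised per plate.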 Raw values vary from plate to plate and are shown uncorrected. Reagents against one gene are numbered here. A plus sign joins genes that one reagent is predicted to hit. Reagent sequences are not shown.

| target | dsRNA no. | mitotic cells, replicate 1 | activity call |
| --- | --- | --- | --- |
| CG17359 | 1 | 6 | inactive |
| CG17359 | 2 | 5 | inactive |
| CG12539 | 1 | 9 | inactive |
| CG12539 | 2 | 9 | inactive |
| Actn3 | 1 | 6 | inactive |
| Pfdn5 | 1 | 8 | inactive |
| Gel | 1 | – | inactive |
| Gel | 2 | 6 | inactive |
| Acbp5 | 1 | 9 | inactive |
| mus301 | 1 | 3 | inactive |
| CG10602 | 1 | 3 | inactive |
| CG5815 | 1 | 8 | inactive |
| CG5815 | 2 | 8 | inactive |
| CG12951 | 1 | 6 | inactive |
| CG12951 | 2 | 9 | inactive |
| Dhc93AB | 1 | 15 | inactive |
| Dhc93AB | 2 | 5 | inactive |
| CG12025 | 1 | 7 | inactive |
| foxo | 1 | 16 | inactive |
| foxo | 2 | 12 | inactive |
| CG42375 + CG9288 | 1 | 4 | inactive |
| sens-2 | 1 | 5 | inactive |
| sens-2 | 2 | 5 | inactive |
| Met | 1 | 14 | inactive |
| Met | 2 | 4 | inactive |
| CG15262 | 1 | 4 | inactive |
| sv | 1 | 6 | inactive |
| sv | 2 | 3 | inactive |
| Gmap | 1 | 15 | inactive |
| Gmap | 2 | 10 | inactive |
| Gmap | 3 | 5 | inactive |
| HisT | 1 | 11 | inactive |
| HisT | 2 | 10 | inactive |
| st | 1 | 4 | inactive |
| st | 2 | 11 | inactive |
| CG10274 | 1 | 7 | inactive |
| CG10274 | 2 | 4 | inactive |
| CG7191 | 1 | 4 | inactive |
| CG7191 | 2 | 5 | inactive |
| CG3165 | 1 | 4 | inactive |
| MME1 | 1 | 1 | inactive |
| sas | 1 | 13 | inactive |
| CG14195 | 1 | 5 | inactive |
| Mst57Da | 1 | 5 | inactive |
| Acadvl | 1 | 8 | inactive |
| Acadvl | 2 | 6 | inactive |
| CG33639 | 1 | 11 | inactive |
| CG33639 | 2 | 6 | inactive |
| CG33639 | 3 | 3 | inactive |
| CG12279 | 1 | 5 | inactive |
| Vha14-1 | 1 | 15 | inactive |
| CG32686 | 1 | 13 | inactive |
| CG32686 | 2 | 5 | inactive |
| Ibf2 | 1 | 7 | inactive |
| Gr57a | 1 | 4 | inactive |
| Oseg1 | 1 | 4 | inactive |
| cpa | 1 | 5 | inactive |
| rols | 1 | 6 | inactive |
| rols | 2 | 2 | inactive |
| rols | 3 | 6 | inactive |
| CG1513 | 1 | 11 | inactive |
| CG1513 | 2 | 7 | inactive |
| CG1513 | 3 | 6 | inactive |
| CG6565 | 1 | 4 | inactive |
| CG31038 | 1 | 4 | inactive |
| CG31038 | 2 | 11 | inactive |
| CG31038 | 3 | 11 | inactive |
| CG31038 | 4 | 9 | inactive |
| CG9416 | 1 | 10 | inactive |
| kek4 | 1 | 2 | inactive |
| Tsp42En | 1 | 8 | inactive |
| Obp56c | 1 | 14 | inactive |
| Obp56c | 2 | 6 | inactive |
| Obp56c | 3 | 6 | inactive |
| Kmn1 | 1 | 18 | inactive |
| Kmn1 | 2 | 4 | inactive |
| Zmynd8 | 1 | 4 | inactive |
| Zmynd8 | 2 | 3 | inactive |
| CG33770 | 1 | 10 | inactive |
| pll | 1 | 8 | inactive |
| pll | 2 | 9 | inactive |
| CG31253 + CG31131 | 1 | 16 | inactive |
| Sec15 | 1 | 5 | inactive |
| Sec15 | 2 | 4 | inactive |
| CG7551 | 1 | 4 | inactive |
| Fmo-2 | 1 | 4 | inactive |
| vito | 1 | 14 | inactive |
| vito | 2 | 6 | inactive |
| B4 | 1 | 6 | inactive |
| B4 | 2 | 7 | inactive |
| nerfin-2 | 1 | 5 | inactive |
| nerfin-2 | 2 | 7 | inactive |
| CG1213 | 1 | 6 | inactive |
| Tina-1 | 1 | 9 | inactive |
| RpL37-1 | 1 | 9 | inactive |
| RpL37-1 | 2 | 9 | inactive |
| CG10570 + CG42502 | 1 | 3 | inactive |
| Axn | 1 | 17 | inactive |
| Axn | 2 | 9 | inactive |
| cato | 1 | 8 | inactive |
| cola + swif | 1 | 8 | inactive |
| cola + swif | 2 | 10 | inactive |
| GCC88 | 1 | 4 | inactive |
| GCC88 | 2 | 7 | inactive |
| CG13693 | 1 | 3 | inactive |
| CG13693 | 2 | 9 | inactive |
| CG14424 | 1 | 13 | inactive |
| CG14424 | 2 | 7 | inactive |
| ImpL1 | 1 | 6 | inactive |
| ImpL1 | 2 | 4 | inactive |

Targets listed so far whose gene name starts with F or f (3):
| target | dsRNA no. | mitotic cells, replicate 1 | activity call |
| --- | --- | --- | --- |
| foxo | 1 | 16 | inactive |
| foxo | 2 | 12 | inactive |
| Fmo-2 | 1 | 4 | inactive |
